The values below come from article PMC10112521, “High-throughput AR dimerization assay identifies androgen disrupting chemicals and metabolites” (Frontiers in Toxicology, 2023).

In this test the test system is AR2 cells (HepG2-AR2). In words: Alamar Blue (resazurin) post hoc cell viability / cytotoxicity assay in AR2 cells.

For the compound `CC(C)(C)c1ccc(O)cc1` [4-tert-Butylphenol], the “hill_tp (Hill model top)” value is on record as 0 and the “max_med (maximum median response)” value came to 11.6734.
